Measured values as given in the supplement of paper PMC12823440, “Inhibitors supercharge kinase turnover through native proteolytic circuits” (Nature, 2025).
Structures can show the parent of a compound that is named as a salt. The list shows a part of the results. The calls rarely recur for the same compound in another form.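 Kinases were expressed as nanoluciferase fusions in K562 cells and luminescence was read every 4 h between 2 and 18 h as percent of control, DMSO set to 100% and a positive control to 0%. A time point counts as decreased when the signal drops significantly (2 sigma). The hit call is the authors' own, does not follow from the count of time points alone, and its rule is not shown.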

By UniProt entry, the sequences of proteins in these tests, tags left out. Where a name states a change or a piece, a line headed by the entry shows the natural chain unless it says otherwise.
UniProt Q13555: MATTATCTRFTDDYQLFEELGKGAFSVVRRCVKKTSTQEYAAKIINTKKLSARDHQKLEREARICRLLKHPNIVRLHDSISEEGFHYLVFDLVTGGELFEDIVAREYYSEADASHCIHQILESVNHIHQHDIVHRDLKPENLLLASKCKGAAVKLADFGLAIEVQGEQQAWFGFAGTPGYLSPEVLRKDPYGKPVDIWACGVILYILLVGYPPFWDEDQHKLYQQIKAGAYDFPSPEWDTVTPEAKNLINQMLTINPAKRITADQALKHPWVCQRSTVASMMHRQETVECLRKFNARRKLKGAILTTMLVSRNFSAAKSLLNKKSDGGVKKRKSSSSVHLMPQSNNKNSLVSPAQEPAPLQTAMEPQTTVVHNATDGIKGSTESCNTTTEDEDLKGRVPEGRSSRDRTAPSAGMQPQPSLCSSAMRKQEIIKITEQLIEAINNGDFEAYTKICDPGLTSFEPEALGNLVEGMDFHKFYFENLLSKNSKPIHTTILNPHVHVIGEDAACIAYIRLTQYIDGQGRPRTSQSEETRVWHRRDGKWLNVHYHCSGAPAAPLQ

Each compound was assayed against CAMK2G (UniProt Q13555) (assay: number of time points (of 5) at which kinase-Nluc abundance scored as decreased, DMSO-normalised (count); higher = more persistent destabilization). Settings: K562; 2-18 h.

`O=C1NC(=O)C(c2cn(-c3ccccc3)nc2-c2ccc(F)cc2)N1` (centres undefined) (10 µM) and `CC[C@H](Nc1ncnc2[nH]cnc12)c1oc2ccccc2c(=O)c1-c1cccc(F)c1` [Tenalisib] (10 µM) are the same in “number of time points” value: 0 for the first, 0 for the second.

Going from `O=[N+]([O-])c1ccc(Sc2cccc[n+]2[O-])c2nonc12` (2.5 µM) to `CCOc1ccccc1C=C1C(=O)Nc2ccccc21` (10 µM), the “number of time points” value rises from 0 to 1.

`COc1nc(-c2ccnc(NC(=O)C3CC3)c2)sc1C(N)=O` [GSK-3β inhibitor 2] (10 µM) and `CC(=O)Nc1nc2ccc(-c3cnc(C)c(NC(=O)OC4CCCCC4)c3)cc2s1` (10 µM) are the same in “number of time points” value: 0 for the first, 0 for the second.

Going from `CCN1/C(=C/C(C)=O)Sc2ccc(OC)cc21` (10 µM) to `O=C1NC(=O)/C(=C/c2ccc(-c3ccc(F)cc3O)o2)S1` (10 µM), the “number of time points” value falls from 1 to 0.

`Nc1cccc(S(=O)(=O)N2CCCN(S(=O)(=O)c3ccc4c(c3)OCCO4)CC2)c1` (10 µM) and `CN(C)C(=O)c1ccc(S(=O)(=O)c2ccc(NC(=O)[C@@](C)(O)C(F)(F)F)c(Cl)c2)cc1` (10 µM) are the same in “number of time points” value: 0 for the first, 0 for the second.

`Nc1ncc(-c2ccc(C(=O)N3CCNCC3)cc2)nc1-c1ccc(C(F)(F)F)cc1` (10 µM) and `O=C(CO)N1CCC(c2n[nH]c(-c3ccc(Cl)cc3)c2-c2ccncn2)CC1` (10 µM) are the same in “number of time points” value: 0 for the first, 0 for the second.

`CC(C)(O)[C@@H]1CC[C@](C)([C@H]2[C@@H](O)C[C@@]3(C)[C@@H]4C[C@H](O[C@@H]5O[C@H](CO)[C@@H](O)[C@H](O)[C@H]5O)[C@H]5C(C)(C)[C@@H](O[C@@H]6OC[C@@H](O)[C@H](O)[C@H]6O[C@@H]6O[C@H](CO)[C@@H](O)[C@H](O)[C@H]6O)CC[C@@]56C[C@@]46CC[C@]23C)O1` [Astragaloside VI] (10 µM) and `O=C(O)c1cc(O)c2c(c1)[C@@H]([C@H]1c3cc(C(=O)O)cc(O)c3C(=O)c3c(O[C@@H]4O[C@H](CO)[C@@H](O)[C@H](O)[C@H]4O)cccc31)c1cccc(O[C@@H]3O[C@H](CO)[C@@H](O)[C@H](O)[C@H]3O)c1C2=O` [Sennoside B] (2.5 µM) are the same in “number of time points” value: 0 for the first, 0 for the second.

`COc1ccccc1/C=C1\C(=O)Nc2ccccc21` (10 µM) and `CN(C)Cc1cccc(N=C(c2ccccc2)c2c(O)[nH]c3cc(C(=O)N(C)C)ccc23)c1` (10 µM) are the same in “number of time points” value: 0 for the first, 0 for the second.

`CC1(N)CCN(c2cnc3c(-c4cccc(Cl)c4Cl)[nH]nc3n2)CC1` (2.5 µM) and `O=c1nc(N2CCOCC2)oc2c(-c3cccc4c3sc3ccccc34)cccc12` (10 µM) are the same in “number of time points” value: 0 for the first, 0 for the second.

`CC(C)C[C@H](NC(=O)[C@H](CCCCN)NC(=O)[C@H](CO)NC(=O)[C@@H](N)CC(C)C)C(N)=O` [LSKL, Inhibitor of Thrombospondin (TSP-1) (TFA)] (10 µM) and `COC(=O)N[C@@H](C)CNc1nccc(-c2cn(C(C)C)nc2-c2cc(Cl)cc(NS(C)(=O)=O)c2F)n1` [Encorafenib] (10 µM) are the same in “number of time points” value: 0 for the first, 0 for the second.

`CN1CC[C@H](c2c(O)cc(O)c3c(=O)cc(-c4ccc(C(F)(F)F)cc4Cl)oc23)[C@H]1CO` [(2S,3R)-Voruciclib (hydrochloride)] (2.5 µM) and `Cn1ncc(Cl)c1-c1cc(C(=O)N[C@H](CN)Cc2ccc(F)c(F)c2)sc1Cl` (10 µM) are the same in “number of time points” value: 0 for the first, 0 for the second.

`C[C@H]1[C@H](OC(=O)CCC(=O)O)O[C@@H]2O[C@@]3(C)CC[C@H]4[C@H](C)CC[C@@H]1[C@@]24OO3` [Artesunate] (2.5 µM) and `O=C(Nc1ccc(Cl)cc1)C1CCCN(C(=O)c2cccc(-c3ccco3)c2)C1` (centres undefined) (2.5 µM) are the same in “number of time points” value: 0 for the first, 0 for the second.

`c1ccc(-c2nn3c(c2-c2ccnc4cc(OCCN5CCOCC5)ccc24)CCC3)nc1` (10 µM) and `Cc1ccc(-c2ncn(-c3ccc(Nc4nccc(-c5cccc(N6CCOCC6)c5)n4)cc3)n2)cn1` (10 µM) are the same in “number of time points” value: 0 for the first, 0 for the second.

`COc1cc(N2CCC(N(C)C)CC2)ccc1Nc1ncc(Cl)c(Nc2ccccc2P(C)(C)=O)n1` (2.5 µM) and `CCc1cccc(CC)c1NC(=O)c1nn(C)c2c1CCc1cnc(Nc3ccc(C(=O)NC4CCN(C)CC4)cc3OC(F)(F)F)nc1-2` (2 µM) are the same in “number of time points” value: 0 for the first, 0 for the second.

`CC[C@@H]1[C@H](F)C(=O)N[C@@H]1COc1nccc2cc(C(N)=O)c(OC)cc12` (10 µM) and `C=CS(=O)(=O)c1ccc(Nc2nc(OCC3CCCCC3)c3[nH]cnc3n2)cc1` (2.5 µM) are the same in “number of time points” value: 0 for the first, 0 for the second.

`Cc1cc(Nc2cc(CN3CCOCC3)c3nc(C)c(Cc4ccc(Cl)cc4F)n3n2)n[nH]1` [Gandotinib] (2.5 µM) and `COc1ncc(Nc2ncc([C@@H](C)N3CCN(S(C)(=O)=O)CC3)cc2-c2nc(C)nc(N)n2)cc1F` (10 µM) are the same in “number of time points” value: 0 for the first, 0 for the second.

Going from `OCCN(CCO)c1ccc(C(c2ccc(Cl)cc2)c2ccc(N(CCO)CCO)cc2)cc1` (10 µM) to `CSc1ccc(CN2CCCC(Nc3ccc4[nH]ncc4c3)C2)cc1` (centres undefined) [Rho-Kinase-IN-1] (10 µM), the “number of time points” value falls from 3 to 0.

`O=c1ccc2ccc(O)c(O)c2o1` [Daphnetin] (10 µM) and `O=C(Nc1ccc(Cl)c(Cl)c1)Nc1ccc2nnsc2c1` (10 µM) are the same in “number of time points” value: 0 for the first, 0 for the second.

`O=C(Nc1cccc(-c2nncn2C2CC2)c1)c1cc(-n2cnc(C3CC3)c2)ccn1` (10 µM) and `O=c1[nH]ccc2cc(OC3CCNCC3)ccc12` (10 µM) are the same in “number of time points” value: 0 for the first, 0 for the second.

With `Oc1ccccc1C(=S)N1CCCC1` (10 µM) the “number of time points” value was 0.
